From patent US20220025045A1
Results are given in words; binding and its absence hold for the method and conditions named. A result given as binding can be weak or reduced; the word gives no strength.

Legend:
Experiment in all cases: flow cytometry, CHO cells
[1] = target: anchored ILT2 D1 domain fragment protein (human)
[2] = target: anchored ILT2 D1-D2 domain fragment protein (human)
[3] = target: anchored ILT2 D1-D2-D3 domain fragment protein (human)

Binder | binding [1] | binding [2] | binding [3]
3H5 (antibody, human IgG1, V domains shown) VH: QVQLKESGPGLVAPSQSLSITCTVSGFSLTSYGVSWVRQPPGKGLEWLGVIWGDGSTNYHSALISRLSISKDNSKSQVFLKLNSLQTDDTATYYCAKPRWDDYAMDYWGQGTSVTVSS VL: DIQMTQTTSSLSASLGDRVTISCRASQDISNYLNWYQQKPDGTVKLLIYYTSRLHSGVPSRFSGSGSGTDYSLTISNLEQEDIATYFCQQGNTLWTFGGGTKLEIK | binds | binds | binds
1E4C (antibody, human IgG1, V domains shown) VH: QRELQQSGPELVKPGASVNISCKASGYSFTNHYINWVKQRPGQGLEWIGWIFPGNGDTNYNEKFKGKATLTADTSSSTAYMQLSSLTSEDSAVYFCARTWNYDARWGYWGQGTTVTVSS VL: DVVMTQTPAFLAVSLGQRATISCRASESIDSYGISFMHWYQQKPGQPPKVLIYRTSNLESGIPARFSGSGSRTDFTLTINPVEADDVATYYCQQSNEDPFTFGSGTKLEIK | binds | binds | 
1A9 (antibody, human IgG1, V domains shown) VH: EVKLQQSGPDLVKPGASVKISCKASGYSFTNFYIHWVKQRPGQGLEWIGWIFPGNGETNYSEKFKGKATLTADTSSSTAYMQFNSLTYEDSAVYFCARTWNYDARWGYWGQGTTLTVSS VL: DVVMTQTPASLAVSLGQRATISCRASDGIDSYGISFMRWYQQKPGQPPTLLIYRASTLESGIPARFSGSGSRTNFTLTINPVEADDVATYYCQQTNEDPFTFGSGTKLEIK | binds | binds | 
3A7A (antibody, human IgG1, V domains shown) VH: QVQLKESGPELVKPGTSVKISCKASGYNFRNYYIQWVKQRPGQGLEWIGWIFPGNNETNYNEKFKGKATLSADTSSTTAYMQLSSLTSEDSAVYFCARSWNYDARWGYWGQGTTVTVSS VL: DVVMTQTPASLAVSLGQRATISCRASEIIDNYGISFIHWYQQKPGQPPKLLIYRASNLESGIPARFSGSGSRTDSTLTINPVGADDVATYYCQQSNEDPFTFGSGTKLELK | binds | binds | 

Continued, values first:

binding [1] | binding [2] | binding [3] | Binder
binds | binds | binds | 48F12 (antibody, V domains shown) VH: QVQLKESGPGLVAPSQSLSITCTVSGFSLTSYGVSWVRQPPGKGLEWLGIIWGDGSTNYHSALVSRLSISKDNSKSQVFLKLNSLQTDDTATYYCAKPNWDYYAMDYWGQGTSVTVSS VL: DIQMTQTTSSLSASLGDRVTISCRASQDISNYLNWYQQKVDGTVKLLISYTSRLHSGVPSRFSGSGSGTDYSLTISNLEQEDIATYFCQQGITLPLTFGAGTKLELK
binds | binds | binds | 27H5 (antibody, human IgG1, V domains shown) VH: QVQLKESGPGLVAPSQSLSITCTVSGFSLTSYGVSWVRQPPGKGLEWLGVIWGDGNTNYHSALISRLSISKDNSKSQVFLKLNSLQTDDTATYYCARTNWDGWFAYWGQGTLVTVSA VL: DIVMTQSHKFMSTSVGDRVSITCKASQDVGTAVAWYQQKPGQSPKLLIYWASTRHTGVPDRFTGSGSGTDFTLTISNVQSEDLADYFCQQYRSYPLGTFGGGTKLEIK
binds | binds | binds | 12D12 (antibody, human IgG1, V domains shown) VH: QVQLQQPGAELVKPGASVRMSCKASGYTFTSYWVHWVKQRPGQGLEWIGVIDPSDSYTSYNQNFKGKATLTVDTSSKTAYIHLSSLTSEDSAVYFCARGERYDGDYFAMDYWGQGTSVTVSS VL: DIVMTQSPASLSVSVGETVTITCRASENIYSNLAWYQQKQGKSPQLLVYAATNLADGVPSRFSGSRSGTQYSLKINSLQSEDFGTYYCQHFWNTPRTFGGGTKLEIK
